{
  "source": "patent US7163931B2",
  "about": "“Compositions of estrogen-cyclodextrin complexes” (Schering Aktiengesellchaft, priority 2000, dated 2007)",
  "test": "Formation of known oxidative degradation products of ethinyl estradiol by HPLC after storage",
  "format": "physicochemical",
  "conditions": "12 months",
  "description": "The molar content of each degradation products is expressed relatively to the initial molar content of ethinyl estradiol that was added to each formulation. Four formulations as well as the pure ethinyl estradiol and the ethinyl estradiol β-cyclodextrin complex were investigated.",
  "note": "For at least one compound, name, drawing or mass did not settle the structure.",
  "data": [
    {"smiles": "C#C[C@]1(O)CC[C@H]2[C@@H]3CCc4cc(O)ccc4[C@H]3CC[C@@]21C", "note": "[EE, ethinyl estradiol]", "values": [
      {"measurement": "Formation of 6-α-OH-EE (% of initial content of EE)", "setting": "25° C., 60% RH", "result": "0.004 % of initial content of EE"},
      {"measurement": "Formation of 6-β-OH-EE (% of initial content of EE)", "setting": "25° C., 60% RH", "result": "0.005 % of initial content of EE"},
      {"measurement": "Formation of Δ9,11-EE (% of initial content of EE)", "setting": "25° C., 60% RH", "result": "0.38 % of initial content of EE"},
      {"measurement": "Formation of 6-α-OH-EE (% of initial content of EE)", "setting": "40° C., 75% RH", "result": "0.004 % of initial content of EE"},
      {"measurement": "Formation of 6-β-OH-EE (% of initial content of EE)", "setting": "40° C., 75% RH", "result": "0.005 % of initial content of EE"},
      {"measurement": "Formation of Δ9,11-EE (% of initial content of EE)", "setting": "40° C., 75% RH", "result": "0.38 % of initial content of EE"}
    ]}
  ]
}
